No constants are given. Whether binding was seen depends on the method and setting. In cells and extracts the contact can be indirect. Here binding means that the protein was enriched with, or labelled near, the bait; the list need not be complete.
Target: EGFR (BCG823 cells) (human (endogenous in BCG823)) (UniProt P00533)
Experiment: affinity purification with mass spectrometry; BCG823 cells starved overnight, 50 ng/ml EGF for 120 minutes; 1 mg lysate with 5 μg EGFR (Ab-13) antibody, protein A-Sepharose, washed with NETN buffer (20 mM Tris pH7.5, 1 mM EDTA, 0.5% NP-40, 150 mM NaCl); LC-MS/MS

By UniProt entry, the sequences of proteins in these tests, tags left out. Residues count along the entry.
UniProt Q9ULT6, residues 56-936: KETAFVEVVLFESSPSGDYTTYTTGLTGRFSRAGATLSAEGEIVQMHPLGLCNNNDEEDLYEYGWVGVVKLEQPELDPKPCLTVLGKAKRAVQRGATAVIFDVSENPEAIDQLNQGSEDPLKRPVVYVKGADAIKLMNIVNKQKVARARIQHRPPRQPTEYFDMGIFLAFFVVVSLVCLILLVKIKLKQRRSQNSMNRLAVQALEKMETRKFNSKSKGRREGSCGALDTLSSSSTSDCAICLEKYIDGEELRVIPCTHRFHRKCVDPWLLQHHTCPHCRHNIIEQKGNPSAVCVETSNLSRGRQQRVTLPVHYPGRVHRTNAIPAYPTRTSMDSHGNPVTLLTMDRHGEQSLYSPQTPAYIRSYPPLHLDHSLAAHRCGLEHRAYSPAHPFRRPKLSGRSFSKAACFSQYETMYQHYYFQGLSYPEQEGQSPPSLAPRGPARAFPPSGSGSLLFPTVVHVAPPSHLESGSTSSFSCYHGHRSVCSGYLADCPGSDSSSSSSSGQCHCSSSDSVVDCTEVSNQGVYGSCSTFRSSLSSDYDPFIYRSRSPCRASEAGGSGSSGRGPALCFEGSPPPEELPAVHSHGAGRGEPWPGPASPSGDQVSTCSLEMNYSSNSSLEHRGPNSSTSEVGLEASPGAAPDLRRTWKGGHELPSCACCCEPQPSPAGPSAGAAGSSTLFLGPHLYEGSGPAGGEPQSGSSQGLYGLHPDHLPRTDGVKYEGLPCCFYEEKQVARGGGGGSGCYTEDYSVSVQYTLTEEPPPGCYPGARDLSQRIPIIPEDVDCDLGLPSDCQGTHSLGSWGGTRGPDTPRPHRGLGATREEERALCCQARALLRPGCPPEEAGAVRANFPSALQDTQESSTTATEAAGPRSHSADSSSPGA

endogenous ZNRF3 protein (BCG823 cells) (from UniProt Q9ULT6 56-936) (enzyme)
binding: binds

— publication doi:10.1101/2024.01.10.574969
